Reference: ChEMBL document CHEMBL4715803, “Synthetic Studies of Neoclerodane Diterpenes from Salvia divinorum: Identification of a Potent and Centrally Acting μ Opioid Analgesic with Reduced Abuse Liability” (J Med Chem, 2016)

Test system: Mus musculus
Assay: Antinociceptive activity in male B6-SJL mouse administered subcutaneously daily for 9 days and measured on day 9 by warm water tail-flick assay

Work on `CN1CC[C@]23c4c5ccc(O)c4O[C@H]2[C@@H](O)C=C[C@H]3[C@H]1C5` [MORPHINE] yielded an EC50 of 11.6 mg/kg.
